# Results as given in publication PMC7819943, “Rice protein-binding microarrays: a tool to detect cis-acting elements near promoter regions in rice”.
# Amino acid sequences for entries named in this document (tags omitted).
# UniProt Q0JBA9, entry or part of it: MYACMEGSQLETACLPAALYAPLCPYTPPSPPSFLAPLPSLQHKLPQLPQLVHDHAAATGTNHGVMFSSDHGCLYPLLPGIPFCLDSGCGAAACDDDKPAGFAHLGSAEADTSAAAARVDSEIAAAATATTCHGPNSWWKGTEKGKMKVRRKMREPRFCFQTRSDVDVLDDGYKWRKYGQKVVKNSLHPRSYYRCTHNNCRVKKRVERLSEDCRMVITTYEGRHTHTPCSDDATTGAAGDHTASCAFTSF
# The other results are listed elsewhere or left out.
# Biological target: OsWRKY34 (Oryza sativa, UniProt Q0JBA9 1-250)
# Experiment: protein-binding microarray (RPBM); PBS, 2% BSA, 51.3 ng/ul salmon testes DNA, 50 uM zinc acetate, 200 nM TF, 25 C, 1 h; high values mean tight binding
# Settings: protein: recombinant; tags: N-terminal polyhistidine and DsRed monomer fusion (pET32a); label: CyDye5-dUTP incorporated in the synthesized complementary strand; 3' TTTTT single-stranded linker to array surface; dsDNA, one strand shown
# Procedure, shortened: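 Binding signal is defined as the fluorescence intensity of each feature in arbitrary units, read on an Axon 4000B scanner. Transcription factors with N-terminal polyhistidine and DsRed fusions came from E. coli BL21-CodonPlus and were purified on Ni–NTA. They were incubated at 200 nM for 1 h at 25 °C on a custom Agilent array that had been made double-stranded with Cy5-dUTP, with 50 µM zinc acetate present, and the array was washed.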
row,Sequence,binding signal
1,GCGGTTTCTAGTTTGTCAATGCATATCAGCATCTCCATCGCGGAGTCACCTAGTGCAG,9720 fluorescence intensity (a.u.)
2,ATTTAGAGTTGACTTTGGTTTATTTTTCATTGAAGTTTATCGGAGTCACCTAGTGCAG,9450 fluorescence intensity (a.u.)
3,CCAATCAACTTCTTTGATCATCCATGCATTCGTTACACTCCGGAGTCACCTAGTGCAG,8620 fluorescence intensity (a.u.)
4,CTTTGCCTGCGTTCTGCCTACACACAGCCGCCCTTGCCGACGGAGTCACCTAGTGCAG,10700 fluorescence intensity (a.u.)
5,ACAGGACGAACCGATCAACCCTAGCGGCTAAATTTGACTCCGGAGTCACCTAGTGCAG,9420 fluorescence intensity (a.u.)
6,TCCAAGTCCAGTGGCTCTACGACAACTCCACACACTAACTCGGAGTCACCTAGTGCAG,9490 fluorescence intensity (a.u.)
7,TTTCTGCTGTGTCTGTGCGAGTTTGTTTTCTCTGAATCTCCGGAGTCACCTAGTGCAG,9680 fluorescence intensity (a.u.)
8,CACCTGTGGGCTAGATCAAAGAGAGGTAGCGGGCTGGGTTCGGAGTCACCTAGTGCAG,8620 fluorescence intensity (a.u.)
9,ATATGGGTCCCACGGGTTTATTATTTTTTCCGTATCGAATCGGAGTCACCTAGTGCAG,9630 fluorescence intensity (a.u.)
10,GCTTCCTTCTGGACCAACGTCTATCCACCGTTCCATAGCACGGAGTCACCTAGTGCAG,9380 fluorescence intensity (a.u.)
11,ATTGTCCATGTCTATTACTCTACTTCTTAGCTACTTCTATCGGAGTCACCTAGTGCAG,12700 fluorescence intensity (a.u.)
12,TCGTCTCGCGGTTTCCATACAAACCGTGCTATTAGTTTTTCGGAGTCACCTAGTGCAG,9520 fluorescence intensity (a.u.)
13,ATCTAAATGCATATGATTTCTTGTGTGTTGTAGTGGTGAGCGGAGTCACCTAGTGCAG,8470 fluorescence intensity (a.u.)
14,CACACGCGCCCACCTCGCCGATTTCTCCTCCACGCACGGGCGGAGTCACCTAGTGCAG,10000 fluorescence intensity (a.u.)
15,AAACAACTCACGCTGTCACTCACGCACGCATATCTTCCAACGGAGTCACCTAGTGCAG,8990 fluorescence intensity (a.u.)
16,CATCACCCCAGTTGATATCCCGTGCTTTTACTATGGGATACGGAGTCACCTAGTGCAG,8230 fluorescence intensity (a.u.)
17,AAGTGGTTCTAGGGGTGTTTTAATTTTGCATGTCAACCTACGGAGTCACCTAGTGCAG,10800 fluorescence intensity (a.u.)
18,GAGGAGGCGGGGAGGTGGGAGCGAGCTCGCTAGCTTAGGCCGGAGTCACCTAGTGCAG,9290 fluorescence intensity (a.u.)
19,AATCTCCAACCCTTCACACTCTCCTCTCATCCACGTAAACCGGAGTCACCTAGTGCAG,8880 fluorescence intensity (a.u.)
20,TCTTCCCGGTTGCTTCAGAGCCCATATTAACGCGACGTTCCGGAGTCACCTAGTGCAG,8210 fluorescence intensity (a.u.)
21,CATTGTCAGGGACAGCCTCGTAATTTTGCTGCCGGCCGGACGGAGTCACCTAGTGCAG,8880 fluorescence intensity (a.u.)

# Two entries from above, bar-delimited:
row | Sequence | binding signal
3 | CCAATCAACTTCTTTGATCATCCATGCATTCGTTACACTCCGGAGTCACCTAGTGCAG | 8620 fluorescence intensity (a.u.)
19 | AATCTCCAACCCTTCACACTCTCCTCTCATCCACGTAAACCGGAGTCACCTAGTGCAG | 8880 fluorescence intensity (a.u.)

# Later entries:

row,Sequence,binding signal
1,CTGCTCCGCTATTGTAGCTTTTGCTCGCTTTGCTTAGCTTCGGAGTCACCTAGTGCAG,8880 fluorescence intensity (a.u.)
2,GTGTGTTATAGGAGACGCATTTATGGGTGTGGGTATGACTCGGAGTCACCTAGTGCAG,9340 fluorescence intensity (a.u.)
3,GACACGGTTTTCGAAATATATTTTGACTTTGTGTTTTCTACGGAGTCACCTAGTGCAG,9060 fluorescence intensity (a.u.)
4,ACCGGATCCGGACCATCCCCAGCCACACGATCTCGCCCCTCGGAGTCACCTAGTGCAG,8190 fluorescence intensity (a.u.)
5,CTAAATATTTAACGCTGTTGACTTTTTAAAACATATTTGACGGAGTCACCTAGTGCAG,9280 fluorescence intensity (a.u.)
6,ATGATAAAACATGCGGAACACTTTGCAACATTTTACGTCTCGGAGTCACCTAGTGCAG,9080 fluorescence intensity (a.u.)
7,CCTTTCCACCGAGAGAAAATTTTTTGATCTGTTTGTTGTTCGGAGTCACCTAGTGCAG,9670 fluorescence intensity (a.u.)
8,AGCTTTCGTTGTTGGTTCTTGTTTTGAGGGAATCGTATGCCGGAGTCACCTAGTGCAG,10800 fluorescence intensity (a.u.)
9,TGTTTTTGAGTTGTGTTTTCTTATCTAAGCGCTAGAGCAACGGAGTCACCTAGTGCAG,10400 fluorescence intensity (a.u.)
10,CAAGAAAATCACGGCCCAATACTACAAGGCCCATATCTCTCGGAGTCACCTAGTGCAG,9070 fluorescence intensity (a.u.)
11,ACCCGTCATTCCGTCCGAACATGTCTGCGGCCGTCACGTGCGGAGTCACCTAGTGCAG,8270 fluorescence intensity (a.u.)
12,GTGTTTTTTCTATTCCTCTGTTTCTTCATTCCTACGATTCCGGAGTCACCTAGTGCAG,9100 fluorescence intensity (a.u.)
13,ATCGATCCTGCCGTTTCGTTTCAGCGCTTTGTTTGCTTGACGGAGTCACCTAGTGCAG,13000 fluorescence intensity (a.u.)
14,ATCGCTTTTCAAACCTGTCCAAATGTCTATTTTCTCAGTTCGGAGTCACCTAGTGCAG,11700 fluorescence intensity (a.u.)
15,TTTGGCATTAACCAGTCCTGCTTTCCTCTACTTTAATCACCGGAGTCACCTAGTGCAG,8450 fluorescence intensity (a.u.)
16,ATGATTTAGCCAGACAATGGTTCATCATCCATCCTTGATTCGGAGTCACCTAGTGCAG,10400 fluorescence intensity (a.u.)
17,TTCTCTCTCTCCTGTGTTTTGTCTACCACGTTCTCAACCCCGGAGTCACCTAGTGCAG,12300 fluorescence intensity (a.u.)
18,GTGGGTGGGTTTTCTTCTCCAACGAAACTCTATCCCCTCTCGGAGTCACCTAGTGCAG,13200 fluorescence intensity (a.u.)
19,TGCATTTGTTCTTGATTTTAATTTTGTTTTTGCTCATGGTCGGAGTCACCTAGTGCAG,9670 fluorescence intensity (a.u.)
20,TCCGAAGTCTCCTCTTGTCACCAGCACGCTTGAGCTCCCGCGGAGTCACCTAGTGCAG,8380 fluorescence intensity (a.u.)
21,CTAACTTATGTTTTATTCCACAATGTCTATTGTTCACCTTCGGAGTCACCTAGTGCAG,8060 fluorescence intensity (a.u.)

row,Sequence,binding signal
1,GCAGGCACAATAGCATACTATAAACCAACTATAAACACACCGGAGTCACCTAGTGCAG,8520 fluorescence intensity (a.u.)
2,TATACCATTAATATTTGCGTATTTGTAATGATGCTATTGCCGGAGTCACCTAGTGCAG,8380 fluorescence intensity (a.u.)
3,TTCGCGGCTTCGCCTATCATGCTCACTGCCTAACGGCCTCCGGAGTCACCTAGTGCAG,8250 fluorescence intensity (a.u.)
4,ACAGCTTGCCGCCACCACCACACCACGCCGCTCGCCGCCCCGGAGTCACCTAGTGCAG,8950 fluorescence intensity (a.u.)
5,TTAGGGGTTTTCATTATACTGTAAGTATATCTTTTTATTTCGGAGTCACCTAGTGCAG,11600 fluorescence intensity (a.u.)
6,CGCCTATATATTTGAAACTATACACACATCGTCGTCTATGCGGAGTCACCTAGTGCAG,8610 fluorescence intensity (a.u.)
7,ATCACAGGTATGCTCCCATACATCTTTTGCATTTGTACTACGGAGTCACCTAGTGCAG,9210 fluorescence intensity (a.u.)
8,CGTACATTCCTCAGCCATGTATTCTTACGCTCCGGCCCTCCGGAGTCACCTAGTGCAG,8060 fluorescence intensity (a.u.)
9,GACCATGATTAAATGATGTCGATGTTTTCACTTCTTTTTCCGGAGTCACCTAGTGCAG,8280 fluorescence intensity (a.u.)
10,CTCTCGTCCTCGTCCGCTTCCAGATTCAGATCCACCCATCCGGAGTCACCTAGTGCAG,9630 fluorescence intensity (a.u.)
11,AGTAGGAGGCTGGGTGGTTGTGGGTAAGATGAAAAGAAATCGGAGTCACCTAGTGCAG,10200 fluorescence intensity (a.u.)
12,ACCCACAGGCTAGTTCCACATCAGAACCAACCGCTTCCCTCGGAGTCACCTAGTGCAG,9790 fluorescence intensity (a.u.)
13,TGCCTAATTGATTAGTACTAGATACTTTCTGCATCACTACCGGAGTCACCTAGTGCAG,9390 fluorescence intensity (a.u.)
14,CCATGTTCCTCACCTCTGTACCCCACTAATCACCCATCTTCGGAGTCACCTAGTGCAG,8500 fluorescence intensity (a.u.)
15,ACGCTTGTTAGCTGTTCTGGTGAGTGACATGTAGCCCTCTCGGAGTCACCTAGTGCAG,8040 fluorescence intensity (a.u.)
16,CTGTTCAGATTTATTGTCCTATAATATATATACGGTTTTTCGGAGTCACCTAGTGCAG,8060 fluorescence intensity (a.u.)
17,ACATCTACACTCACCGCCTCACTACGCTCGCCGTACACAACGGAGTCACCTAGTGCAG,9360 fluorescence intensity (a.u.)
18,GCCGGCGGCGGCCGCTTCCGCCTCCATCTTCGTGGGCCTCCGGAGTCACCTAGTGCAG,8780 fluorescence intensity (a.u.)
19,TATGCCTATCTGAATTGGTTACTGTTCGTTTTTCCACTTACGGAGTCACCTAGTGCAG,10800 fluorescence intensity (a.u.)
20,GGTCAGGCACTCACTCTTCTCCGCTATCCACACCCTCTCTCGGAGTCACCTAGTGCAG,8070 fluorescence intensity (a.u.)
21,TTACCGTACCGTCATCTTCTTCTCCGTCTCTCTCTTTTTCCGGAGTCACCTAGTGCAG,9800 fluorescence intensity (a.u.)

row,Sequence,binding signal
1,AAGTGACCTCTCTCTCTCTCTCTCTCTCTCTCTCTCTCTCCGGAGTCACCTAGTGCAG,9940 fluorescence intensity (a.u.)
2,ACTTATAAAACCGTTCACTTCACGTTCTTTGGTGTTTTTGCGGAGTCACCTAGTGCAG,12200 fluorescence intensity (a.u.)
3,AATGACGTTAATTTTTGTTTATTTTTAGCCTTTTTAATTTCGGAGTCACCTAGTGCAG,8420 fluorescence intensity (a.u.)
4,AATGTTATACACGTACGAGTGGGAAACACTACCTTATGTTCGGAGTCACCTAGTGCAG,8940 fluorescence intensity (a.u.)
5,TATAGCCCACCTCAACCCCGTCTCCAACATCATCCTCGAGCGGAGTCACCTAGTGCAG,8400 fluorescence intensity (a.u.)
6,GCCAATTCGTTCGTTTCTTCTTAAGTTCCACAGAATCCCACGGAGTCACCTAGTGCAG,10500 fluorescence intensity (a.u.)
7,ATTTGATTTATTGTTAAATATACTTTCATGTACACATATACGGAGTCACCTAGTGCAG,8240 fluorescence intensity (a.u.)
8,TACACATATTACGTATTGGAGTCCGTGCTGCAGCTAGCTACGGAGTCACCTAGTGCAG,8130 fluorescence intensity (a.u.)
9,ATTGCTATGTTATCTTCCAAGCCTTCTAAACAAGGTCCTACGGAGTCACCTAGTGCAG,8100 fluorescence intensity (a.u.)
10,ACCTCTCCTACTCGTGGATTTCTTTTTGTTCCTTTCTTTCCGGAGTCACCTAGTGCAG,8440 fluorescence intensity (a.u.)
11,CTCCAGTTCTCCACCATCACACGATCGAGCATCTCGGGGCCGGAGTCACCTAGTGCAG,8280 fluorescence intensity (a.u.)
12,AGTGTGTCTATATCAGATCAAACAGTACCCTTGGTTTTATCGGAGTCACCTAGTGCAG,8220 fluorescence intensity (a.u.)
13,TTATTGCTGGGTTCCTCTTGTCTCATTGTCTATGGTGGTACGGAGTCACCTAGTGCAG,9820 fluorescence intensity (a.u.)
14,CGCCTTGCCTTTTTACCACCTCTTCACATGCACGCACGGTCGGAGTCACCTAGTGCAG,8070 fluorescence intensity (a.u.)
15,ATGCTTTCTTCTCTTTAGCTATCACCCATCCATCTATCTACGGAGTCACCTAGTGCAG,9430 fluorescence intensity (a.u.)
16,GAGATCTTTGGGTGGTATCTCGTGCAGTAGCTGGCCTCCACGGAGTCACCTAGTGCAG,9120 fluorescence intensity (a.u.)
17,AGACCTCGAACCATCCATCCATCTATCCACCCAACCACTCCGGAGTCACCTAGTGCAG,8390 fluorescence intensity (a.u.)
18,AAGGTGGGGTTGGAATTCCCATATCCGATTTTTGATTGTTCGGAGTCACCTAGTGCAG,12700 fluorescence intensity (a.u.)
19,ATATTTATGTGCCAAATATTGTCAATTGTTCCTCTTGTTACGGAGTCACCTAGTGCAG,9080 fluorescence intensity (a.u.)
20,CTTATATGTATCATTTGTTTTGTTGTTTTTTATTATTATACGGAGTCACCTAGTGCAG,10200 fluorescence intensity (a.u.)
21,GCATCTTGACATCTTATTTATCCAACTACGAATCATAATCCGGAGTCACCTAGTGCAG,8330 fluorescence intensity (a.u.)
